Assay results as given in publication PMC5344255, “Design, Synthesis and Biochemical Evaluation of Novel Selective Estrogen Receptor Ligand Conjugates Incorporating an Endoxifen-Combretastatin Hybrid Scaffold” (Biomedicines, 2016).

Test system: MDA-MB-231 human breast cancer cells
Assay: MTT assay for antiproliferative effects in MDA-MB-231
Assay type: cell-based
Settings: MDA-MB-231, MTT assay
Method: The human breast carcinoma cell line, MCF-7, was purchased from the European Collection of Animal Cell Cultures (ECACC). The cells were maintained in MCF-7 complete medium; consisting of Eagle’s Minimum Essential Medium (MEM) supplemented with 10% (v/v) Foetal Bovine Serum (FBS), 2 mM L-glutamine, 100 μg/mL penicillin/streptomycin and 1% (v/v) non-essential amino acids. Cell cultures were maintained at 37 °C under a humidified atmosphere of 5% CO2/95% O2. The human breast carcinoma cell line, MDA, was purchased from the European Collection of Animal Cell Cultures (ECACC). The cells were maintained in MDA complete medium; consisting of Dulbecco’s Modified Eagle’s Medium (D-MEM) supplemented with 10% (v/v) Foetal Bovine Serum (FBS), 2 mM L-glutamine, 100 μg/mL penicillin/streptomycin. Cell cultures were maintained at 37 °C under a humidified atmosphere of 5% CO2/95% O2. The MTT assay was performed according to the reported protocol. The tetrazolium salt, 3-(4,5-dimethylthiazol-2-yl)-2,5-diphenyltetrazolium bromide (MTT) is taken up only by metabolically active cells and cleaved to form a formazan dye by mitochondrial dehydrogenases. Assays where repeated in three experiments performed in triplicate (unless otherwise stated) and reported results represent the mean value ± standard error mean. […]

CC/C(=C(\c1ccccc1)c1ccc(OCCN(C)C)cc1)c1ccccc1 [Tamoxifen, reference compound]
IC50: 20 µM
